According to PMC10700341:
No constants are given. Whether binding was seen depends on the method and setting. Binding seen in cells or lysates may run through a third protein. Binding can be weak; no strength is given. Tags and fused reporters may be left off the sequences shown.

Biological target: chicken leptin receptor, FLAG-tagged (chicken)
Test: co-IP; lysates of DF-1 cells expressing both Myc-tagged leptin and FLAG-tagged chLEPR; lysis buffer 50 mM Tris-HCl pH 8.0, 137 mM NaCl, 1% Triton X-100, 1 mM EDTA, 10% glycerol; anti-FLAG or anti-Myc magnetic beads, 4 °C overnight; immunoblotting

B1: chicken leptin, Myc-tagged (ligand, UniProt O42164 19-163)
chain: VPCQIFQDDTKTLIKTIVTRINDISHTSVSAKQRVTGLDFIPGLHPILSLSKMDQTLAVYQQVLTSLPSQNVLQIANDLENLRDLLHLLAFSKSCSLPQTSGLQKPESLDGVLEASLYSTEVVALSRLQGSLQDILQQLDISPEC
binding: binds
